PubChem BioAssay AID1259308, NCATS | 2017
Screen: 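Genes whose loss raises luciferase production in HEK293 cells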 (primary screen). Cell system: human HEK293 embryonic kidney cells stably expressing firefly luciferase (HEK-CMV-Luc2-Hygro). Reagents: single siRNA against human genes, 0.8 pmol siRNA per well. Duration: 72 h. Measured: 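Reporter luminescence and viable-cell signal on separate replicate plates, given as percent of non-targeting control and median/MAD z-scores, plus per-cell luciferase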. Scale: total luciferase, z-score and total luciferase, % of control: higher = more reporter protein produced; luciferase per cell, z-score: higher = more reporter output per viable cell. Call rule: 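An siRNA counts as active if its total luciferase robust z-score exceeds 3; genes with two or more such siRNAs out of three were retested with fresh siRNAs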. Calls: active = raised luciferase; inactive = no rise.
This is an unselected part of about 59,000 reagents tested. In the full data, about 1,510 (2.6%) are marked active. 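Calls use total luciferase alone and ignore viability, so some active siRNAs may act by altering cell number.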 A number with no mark means an inactive call. Reagents against one gene are numbered here. Not all columns of the deposit are shown.

The opening 2 records as a preview:
| gene symbol | reagent | total luciferase, z-score | total luciferase, % of control | luciferase per cell, z-score |
| --- | --- | --- | --- | --- |
| NAA40 | 1 | -0.296 | 76 | 0.453 |
| NAA40 | 2 | 0.425 | 90.3 | 0.475 |

Main list, from the first entry:
| gene symbol | reagent | total luciferase, z-score | total luciferase, % of control | luciferase per cell, z-score |
| --- | --- | --- | --- | --- |
| NAA40 | 1 | -0.296 | 76 | 0.453 |
| NAA40 | 2 | 0.425 | 90.3 | 0.475 |
| NAA40 | 3 | 0.667 | 95.2 | 1.54 |
| SMG1 | 1 | 0.198 | 85.8 | 0.573 |
| SMG1 | 2 | 1.32 | 108 | 0.257 |
| SMG1 | 3 | 1.67 | 115 | 0.81 |
| ABHD5 | 1 | -0.164 | 78.6 | -0.422 |
| ABHD5 | 2 | -0.0881 | 80.1 | -0.0925 |
| ABHD5 | 3 | -1.39 | 54.3 | -1.55 |
| SGCZ | 1 | 0.463 | 91.1 | 0.0423 |
| SGCZ | 2 | -0.46 | 72.7 | -0.363 |
| SGCZ | 3 | -0.193 | 78 | -0.533 |
| CCDC87 | 1 | 1.42 | 110 | 2.46 |
| CCDC87 | 2 | 1.44 | 110 | 2.05 |
| CCDC87 | 3 | -1.98 | 42.5 | -2.18 |
| NDP | 1 | 4.06 (active) | 163 | 2.54 |
| NDP | 2 | -0.412 | 73.7 | -1.13 |
| NDP | 3 | -0.0878 | 80.1 | -0.269 |
| GPX3 | 1 | 1.52 | 112 | 1.03 |
| GPX3 | 2 | 0.361 | 89.1 | -0.434 |
| GPX3 | 3 | 4.76 (active) | 177 | 2.89 |
| BECN1 | 1 | -0.667 | 68.6 | -0.155 |
| BECN1 | 2 | 0.026 | 82.4 | 0.0153 |
| BECN1 | 3 | -0.381 | 74.3 | 0.587 |
